Assay results as given in patent publication US20040091486A1.
No constants are given. Whether binding was seen depends on the method and setting. Some binding calls cover weakened binding; strength is not graded here.

Protein sequences, listed by entry. Tags and fused reporters are not part of them. Residues count along the entry.
UniProt P29317, residues 24-537: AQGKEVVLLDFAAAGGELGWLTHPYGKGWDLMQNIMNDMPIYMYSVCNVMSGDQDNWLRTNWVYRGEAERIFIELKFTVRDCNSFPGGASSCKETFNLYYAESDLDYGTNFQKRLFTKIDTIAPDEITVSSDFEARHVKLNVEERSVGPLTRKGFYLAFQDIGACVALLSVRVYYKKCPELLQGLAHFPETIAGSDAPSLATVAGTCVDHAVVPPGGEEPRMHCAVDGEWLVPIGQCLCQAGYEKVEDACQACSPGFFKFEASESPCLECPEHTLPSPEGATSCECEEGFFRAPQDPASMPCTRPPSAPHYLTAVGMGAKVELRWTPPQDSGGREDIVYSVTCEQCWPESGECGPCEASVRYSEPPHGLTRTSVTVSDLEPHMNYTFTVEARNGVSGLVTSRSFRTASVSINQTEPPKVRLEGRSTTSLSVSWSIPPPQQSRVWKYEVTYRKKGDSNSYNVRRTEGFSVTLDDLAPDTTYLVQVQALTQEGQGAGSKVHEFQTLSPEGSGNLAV
UniProt P20827, residues 19-182: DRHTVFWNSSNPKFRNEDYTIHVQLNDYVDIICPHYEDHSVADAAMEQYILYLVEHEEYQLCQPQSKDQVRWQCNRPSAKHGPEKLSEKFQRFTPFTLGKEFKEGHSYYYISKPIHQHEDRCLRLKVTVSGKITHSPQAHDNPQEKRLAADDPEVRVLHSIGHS

What was measured:
[1] = molecular target: EphA2-Fc, fusion protein consisting of the extracellular domain of EphA2 linked to human IgG1 constant region (human) (UniProt P29317); assay: ELISA, Ephrin A1-Fc immobilized on the plate
[2] = molecular target: EphA2-Fc, fusion protein consisting of the extracellular domain of EphA2 linked to human IgG1 constant region (human) (UniProt P29317); assay: ELISA, Ephrin A1-Fc coated on the plate; very little additional biotinylated Ephrin A1-Fc bound the complex

binding [1]: binds | binding [2]: binds
Substance: Ephrin A1-Fc (from UniProt P20827 19-182) (Fc fusion)
